One test deals with c-MET (Homo sapiens, UniProt P08581). In words: Enzymatic kinase assay (ADP-Glo), c-MET. The conditions noted are these: read-out: Enzymatic assay IC50 c-MET; Table 3; poly (Glu4, Tyr1) substrate, 60 min room temperature, ADP-GLO luminescence. A general note: ADP-Glo turns the ADP formed in a reaction into a luminescent signal.
Another test addresses AXL (Homo sapiens, UniProt P30530). Nature of the test: Enzymatic kinase assay (ADP-Glo), AXL. As to conditions: read-out: Enzymatic assay IC50 AXL; Table 3; poly (Glu4, Tyr1) substrate, 60 min room temperature, ADP-GLO luminescence.
The next test has as its target MER (Homo sapiens, UniProt Q12866). Nature of the test: Enzymatic kinase assay (ADP-Glo), MER. The conditions noted are these: read-out: Enzymatic assay IC50 MER; Table 3; poly (Glu4, Tyr1) substrate, 60 min room temperature, ADP-GLO luminescence.
A further test relates to PC9/ER cells. Nature of the test: Cell viability assay (CellTiter-Glo 2.0), erlotinib-resistant PC9/ER cells. Type of test: cell-based. As to conditions: read-out: Relative cell viability; IC50 PC9ER; Table 4; 72 h drug treatment, combinations of EGFR TKIs and inhibitor of Formula (I). From the text:
(§1) To explore c-MET and AXL mechanisms of EGFR TKI resistance, resistant cells of the EGFR TKI hypersensitive EGFR exon 19 mutant NSCLC cell line, HCC827 and PC9 were generated by exposing these cells to increasing concentrations of EGFR TKI for over 3 months.
(§2) The human cell line HCC827 was purchased from the American Type Culture Collection (Manassas, VA), and the PC9 cell line was obtained from RIKEN Cell Bank (Ibaraki, Japan). The HCC827/ER, HCC827/GR, HCC827/OR, and PC9/ER cells, which contain deletions in the EGFR exon 19 and the c-MET and AXL overexpression, were developed from HCC827 or PC9 cells by stepwise exposure to gefitinib, erlotinib, and osimertinib. Gefitinib-resistant cells were referred to as HCC827/GR. Erlotinib-resistant cells were referred to as PC9/ER, HCC827/ER. Osimertinib-resistant cells were referred to as HCC827/OR.
(§3) Cell viability assays were carried out by plating 1,000 cells per well of HCC827 or PC9 resistant cells, respectively, into white transparent-bottom 384-well plates. The cells were treated with each TKI across a 10-dose range from 1 nM to 10,000 nM. After 72 h of drug treatment, cell viability was measured using the CellTiter-Glo 2.0 assay (Promega, Madison, WI). […]. The combination of EGFR TKIs and inhibitor of Formula (I) overcame acquired resistance to EGFR TKIs.
(§4) Cell viability assays were carried out by plating 1,000 cells per well of HCC827 or PC9 resistant cells, respectively, into white transparent-bottom 384-well plates. The cells were treated with each TKI across a 10-dose range from 1 nM to 10,000 nM. After 72 h of drug treatment, cell viability was measured using the CellTiter-Glo 2.0 assay (Promega, Madison, WI). […].

Amino acid sequences for entries named in this document (tags omitted). Residues count along the entry.
UniProt P08581, 25-1390 limits assumed: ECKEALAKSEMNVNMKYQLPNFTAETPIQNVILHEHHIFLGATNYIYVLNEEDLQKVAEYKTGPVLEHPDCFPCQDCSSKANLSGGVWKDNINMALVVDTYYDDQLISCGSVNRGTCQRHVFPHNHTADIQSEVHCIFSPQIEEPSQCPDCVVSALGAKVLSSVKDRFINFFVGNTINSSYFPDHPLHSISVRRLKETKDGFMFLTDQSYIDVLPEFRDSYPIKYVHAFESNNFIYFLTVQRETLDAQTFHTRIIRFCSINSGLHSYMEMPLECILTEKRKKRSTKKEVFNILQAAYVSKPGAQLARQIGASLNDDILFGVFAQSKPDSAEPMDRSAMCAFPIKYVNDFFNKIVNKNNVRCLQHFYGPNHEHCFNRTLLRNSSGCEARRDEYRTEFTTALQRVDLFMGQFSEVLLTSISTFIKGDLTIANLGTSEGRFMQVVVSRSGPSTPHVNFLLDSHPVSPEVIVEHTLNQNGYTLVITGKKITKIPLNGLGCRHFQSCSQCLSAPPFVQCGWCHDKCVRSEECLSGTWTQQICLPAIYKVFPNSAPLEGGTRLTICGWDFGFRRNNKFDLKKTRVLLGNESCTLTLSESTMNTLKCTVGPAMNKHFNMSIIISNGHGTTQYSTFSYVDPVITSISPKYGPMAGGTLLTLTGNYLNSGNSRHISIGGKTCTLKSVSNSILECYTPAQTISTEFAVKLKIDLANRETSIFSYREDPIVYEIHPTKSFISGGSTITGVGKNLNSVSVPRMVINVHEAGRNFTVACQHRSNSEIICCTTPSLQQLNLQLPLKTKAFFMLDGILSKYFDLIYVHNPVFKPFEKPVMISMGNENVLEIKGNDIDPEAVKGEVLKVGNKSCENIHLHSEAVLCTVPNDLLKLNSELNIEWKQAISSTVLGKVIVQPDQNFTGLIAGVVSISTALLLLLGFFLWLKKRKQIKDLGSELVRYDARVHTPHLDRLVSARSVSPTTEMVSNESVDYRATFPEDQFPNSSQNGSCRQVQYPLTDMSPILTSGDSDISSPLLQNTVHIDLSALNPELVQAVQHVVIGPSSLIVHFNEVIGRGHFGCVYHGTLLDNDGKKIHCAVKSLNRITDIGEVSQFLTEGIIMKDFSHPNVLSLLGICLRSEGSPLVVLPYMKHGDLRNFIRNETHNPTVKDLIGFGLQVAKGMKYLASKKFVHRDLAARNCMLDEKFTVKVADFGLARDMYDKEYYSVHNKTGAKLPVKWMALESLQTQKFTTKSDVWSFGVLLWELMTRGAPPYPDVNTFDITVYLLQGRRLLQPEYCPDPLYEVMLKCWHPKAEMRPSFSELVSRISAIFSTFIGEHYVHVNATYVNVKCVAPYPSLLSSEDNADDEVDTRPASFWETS
UniProt P30530, 26-894 limits assumed: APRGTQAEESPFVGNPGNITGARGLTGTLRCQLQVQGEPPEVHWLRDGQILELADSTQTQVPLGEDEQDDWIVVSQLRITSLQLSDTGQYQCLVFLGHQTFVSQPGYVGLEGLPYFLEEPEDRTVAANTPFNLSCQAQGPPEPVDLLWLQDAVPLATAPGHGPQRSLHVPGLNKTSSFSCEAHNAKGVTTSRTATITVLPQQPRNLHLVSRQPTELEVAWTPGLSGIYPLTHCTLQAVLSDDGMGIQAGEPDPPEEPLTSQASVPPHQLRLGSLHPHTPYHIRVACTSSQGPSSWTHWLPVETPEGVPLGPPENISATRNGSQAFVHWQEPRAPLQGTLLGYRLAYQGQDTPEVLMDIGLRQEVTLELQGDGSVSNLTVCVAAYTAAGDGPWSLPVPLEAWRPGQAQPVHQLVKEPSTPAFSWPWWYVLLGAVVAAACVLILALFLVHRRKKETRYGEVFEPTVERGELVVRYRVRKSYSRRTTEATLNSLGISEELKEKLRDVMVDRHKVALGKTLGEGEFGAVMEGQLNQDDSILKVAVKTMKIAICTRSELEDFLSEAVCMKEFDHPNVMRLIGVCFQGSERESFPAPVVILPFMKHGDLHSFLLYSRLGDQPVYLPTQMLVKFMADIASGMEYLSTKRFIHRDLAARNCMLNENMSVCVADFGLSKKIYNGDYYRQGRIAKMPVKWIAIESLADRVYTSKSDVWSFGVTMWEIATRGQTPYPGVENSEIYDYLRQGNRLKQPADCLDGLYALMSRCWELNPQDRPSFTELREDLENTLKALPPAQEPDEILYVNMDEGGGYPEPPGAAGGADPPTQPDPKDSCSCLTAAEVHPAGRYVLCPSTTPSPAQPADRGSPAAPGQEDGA
UniProt Q12866, 21-999 limits assumed: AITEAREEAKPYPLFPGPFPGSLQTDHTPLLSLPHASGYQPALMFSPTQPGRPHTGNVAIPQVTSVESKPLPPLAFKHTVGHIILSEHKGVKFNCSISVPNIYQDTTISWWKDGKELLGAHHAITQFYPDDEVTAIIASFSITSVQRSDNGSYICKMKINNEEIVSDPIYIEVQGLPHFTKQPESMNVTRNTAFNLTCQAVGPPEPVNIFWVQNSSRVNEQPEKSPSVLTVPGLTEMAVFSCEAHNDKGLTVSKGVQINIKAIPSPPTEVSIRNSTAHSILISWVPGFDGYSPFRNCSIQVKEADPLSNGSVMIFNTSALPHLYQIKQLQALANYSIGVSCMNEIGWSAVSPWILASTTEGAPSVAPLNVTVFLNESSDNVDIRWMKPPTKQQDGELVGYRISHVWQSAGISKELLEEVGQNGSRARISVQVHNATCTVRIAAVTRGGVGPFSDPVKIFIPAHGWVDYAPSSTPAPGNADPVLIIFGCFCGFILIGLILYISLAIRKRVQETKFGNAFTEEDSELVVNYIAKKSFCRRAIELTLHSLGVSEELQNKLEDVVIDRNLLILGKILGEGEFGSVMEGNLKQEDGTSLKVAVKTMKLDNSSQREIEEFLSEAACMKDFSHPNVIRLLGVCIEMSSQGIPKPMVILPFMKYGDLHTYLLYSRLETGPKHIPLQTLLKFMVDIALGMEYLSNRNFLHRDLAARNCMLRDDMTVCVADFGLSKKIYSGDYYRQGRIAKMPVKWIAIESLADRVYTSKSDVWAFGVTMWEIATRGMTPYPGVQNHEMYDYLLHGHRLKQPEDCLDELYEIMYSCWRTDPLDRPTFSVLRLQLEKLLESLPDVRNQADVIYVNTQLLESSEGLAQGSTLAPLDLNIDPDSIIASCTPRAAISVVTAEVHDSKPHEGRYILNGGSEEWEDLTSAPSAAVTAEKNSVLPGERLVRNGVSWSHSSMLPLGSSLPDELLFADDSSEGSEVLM

For the next test, the system named is HCC827/ER cells. Nature of the test: Cell viability assay (CellTiter-Glo 2.0), erlotinib-resistant HCC827/ER cells. Type of test: cell-based, human. The conditions noted are these: read-out: Relative cell viability; IC50 HCC827ER; Table 4; 72 h drug treatment, combinations of EGFR TKIs and inhibitor of Formula (I). Background: In ATP-based viability assays light output follows the ATP content of the culture.

The next test deals with HCC827/GR cells. Nature of the test: Cell viability assay (CellTiter-Glo 2.0), gefitinib-resistant HCC827/GR cells. Type of test: cell-based, human. The conditions noted are these: read-out: Relative cell viability; IC50 HCC827GR; Table 4; 72 h drug treatment, combinations of EGFR TKIs and inhibitor of Formula (I).
The subject of the next test is HCC827/OR cells. In words: Cell viability assay (CellTiter-Glo 2.0), osimertinib-resistant HCC827/OR cells. As to conditions: read-out: Relative cell viability; IC50 HCC827OR; Table 4; 72 h drug treatment, combinations of EGFR TKIs and inhibitor of Formula (I). It is filed as cell-based, human.
Description: as §1, §2, §3, §4

The structures appear in SMILES notation. The structures given here were assigned with low confidence; some may be wrong.

Take `CCn1cc(C(=O)Nc2ccc(Oc3ccnc(N)c3C#CCN3CCOCC3)c(F)c2)c(=O)n(C2CCCCC2)c1=O`: the IC50 on c-MET was below 100 nM; on AXL, below 10 nM; on MER, below 10 nM; with PC9/ER cells, below 1000 nM; with HCC827/ER cells it was below 1000 nM; in the test on HCC827/GR cells it was below 1000 nM. In addition, the IC50 in the test on HCC827/OR cells was below 100 nM.

For the compound `CCn1cc(C(=O)Nc2ccc(Oc3ccnc(N)c3C#CCC3CCN(C)CC3)c(F)c2)c(=O)n(C2CCCCC2)c1=O`, the IC50 was below 10 nM on c-MET; below 10 nM at AXL; below 10 nM at MER; below 1000 nM with PC9/ER cells; below 1000 nM with HCC827/ER cells; below 10000 nM in the test on HCC827/GR cells. In addition, the IC50 with HCC827/OR cells is below 10000 nM.

On to `CCn1cc(C(=O)Nc2ccc(Oc3ccnc(N)c3C#CC(C)(C)N3CCNCC3)c(F)c2)c(=O)n(C2CCCCC2)c1=O`, for which the IC50 on c-MET is below 100 nM; at AXL, below 10 nM; on MER, below 10 nM; with PC9/ER cells, below 1000 nM; in the test on HCC827/ER cells, below 1000 nM; with HCC827/GR cells, below 1000 nM. Besides, the IC50 with HCC827/OR cells is below 10000 nM.

For the origin of these results see US12421207B2 (CMG Pharmaceutical Co., Ltd., priority 2022, dated 2025).
